log2 fold change data for 28 targets are collected here from the supplement of paper PMC12819154, “High-throughput peptide-centric local stability assay extends protein–ligand identification to membrane proteins, tissues and bacteria” (Nature Structural & Molecular Biology, 2025).

Protein sequences, listed by entry. Tags and fused reporters are not part of them. Lines headed by an entry give the natural chain unless they say otherwise; changes in a name come on top.
UniProt P48382: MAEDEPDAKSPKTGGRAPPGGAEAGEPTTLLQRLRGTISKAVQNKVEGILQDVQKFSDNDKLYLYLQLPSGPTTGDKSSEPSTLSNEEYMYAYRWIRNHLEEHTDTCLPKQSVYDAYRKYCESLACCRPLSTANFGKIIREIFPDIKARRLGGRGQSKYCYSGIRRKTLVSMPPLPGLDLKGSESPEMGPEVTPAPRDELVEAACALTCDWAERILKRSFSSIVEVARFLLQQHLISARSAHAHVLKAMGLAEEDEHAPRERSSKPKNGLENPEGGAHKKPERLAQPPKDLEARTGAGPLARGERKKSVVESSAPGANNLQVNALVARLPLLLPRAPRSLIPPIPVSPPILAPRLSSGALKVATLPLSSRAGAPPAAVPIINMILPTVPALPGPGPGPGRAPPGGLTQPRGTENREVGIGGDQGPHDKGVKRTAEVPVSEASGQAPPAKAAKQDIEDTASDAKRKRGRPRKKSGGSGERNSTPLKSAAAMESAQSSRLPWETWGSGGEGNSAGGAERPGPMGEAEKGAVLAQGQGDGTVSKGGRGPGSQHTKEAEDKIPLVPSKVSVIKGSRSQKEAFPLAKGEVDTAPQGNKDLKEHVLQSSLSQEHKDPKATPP
UniProt P53990, whole entry: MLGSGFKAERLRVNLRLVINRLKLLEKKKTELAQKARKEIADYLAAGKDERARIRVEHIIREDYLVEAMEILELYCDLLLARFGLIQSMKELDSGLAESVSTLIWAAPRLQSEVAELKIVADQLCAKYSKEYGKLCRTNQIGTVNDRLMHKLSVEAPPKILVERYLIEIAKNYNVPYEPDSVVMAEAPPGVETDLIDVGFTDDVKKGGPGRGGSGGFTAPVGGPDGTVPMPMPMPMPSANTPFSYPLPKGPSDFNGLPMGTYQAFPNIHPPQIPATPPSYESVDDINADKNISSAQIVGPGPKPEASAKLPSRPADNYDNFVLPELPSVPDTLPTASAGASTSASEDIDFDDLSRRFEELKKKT
UniProt P48960: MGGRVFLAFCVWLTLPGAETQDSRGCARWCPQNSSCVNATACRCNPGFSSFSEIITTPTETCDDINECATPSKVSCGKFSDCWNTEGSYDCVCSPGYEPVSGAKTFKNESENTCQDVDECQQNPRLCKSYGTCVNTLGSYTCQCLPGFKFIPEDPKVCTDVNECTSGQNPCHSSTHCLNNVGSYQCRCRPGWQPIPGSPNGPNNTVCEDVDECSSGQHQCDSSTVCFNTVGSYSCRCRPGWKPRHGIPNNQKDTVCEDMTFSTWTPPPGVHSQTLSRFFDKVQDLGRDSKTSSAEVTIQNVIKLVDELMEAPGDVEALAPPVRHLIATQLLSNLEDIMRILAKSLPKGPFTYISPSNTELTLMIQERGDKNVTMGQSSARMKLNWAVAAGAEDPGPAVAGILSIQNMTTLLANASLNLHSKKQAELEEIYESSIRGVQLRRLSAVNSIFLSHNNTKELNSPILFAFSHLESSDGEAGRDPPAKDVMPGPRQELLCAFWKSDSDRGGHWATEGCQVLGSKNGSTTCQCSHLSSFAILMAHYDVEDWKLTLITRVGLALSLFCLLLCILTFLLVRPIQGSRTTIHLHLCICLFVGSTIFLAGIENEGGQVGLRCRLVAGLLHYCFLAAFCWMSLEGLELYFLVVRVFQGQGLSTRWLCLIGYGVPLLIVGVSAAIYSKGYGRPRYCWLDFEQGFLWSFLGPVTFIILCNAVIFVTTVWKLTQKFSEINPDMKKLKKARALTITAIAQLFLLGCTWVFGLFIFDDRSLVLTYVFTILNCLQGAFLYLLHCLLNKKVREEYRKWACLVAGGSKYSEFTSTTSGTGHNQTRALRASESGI
UniProt P49459, whole entry: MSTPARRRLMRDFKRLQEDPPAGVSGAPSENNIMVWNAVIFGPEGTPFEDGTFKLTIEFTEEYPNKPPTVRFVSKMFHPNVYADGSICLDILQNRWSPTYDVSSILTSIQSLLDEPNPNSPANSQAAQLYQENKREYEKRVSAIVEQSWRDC
UniProt P50570: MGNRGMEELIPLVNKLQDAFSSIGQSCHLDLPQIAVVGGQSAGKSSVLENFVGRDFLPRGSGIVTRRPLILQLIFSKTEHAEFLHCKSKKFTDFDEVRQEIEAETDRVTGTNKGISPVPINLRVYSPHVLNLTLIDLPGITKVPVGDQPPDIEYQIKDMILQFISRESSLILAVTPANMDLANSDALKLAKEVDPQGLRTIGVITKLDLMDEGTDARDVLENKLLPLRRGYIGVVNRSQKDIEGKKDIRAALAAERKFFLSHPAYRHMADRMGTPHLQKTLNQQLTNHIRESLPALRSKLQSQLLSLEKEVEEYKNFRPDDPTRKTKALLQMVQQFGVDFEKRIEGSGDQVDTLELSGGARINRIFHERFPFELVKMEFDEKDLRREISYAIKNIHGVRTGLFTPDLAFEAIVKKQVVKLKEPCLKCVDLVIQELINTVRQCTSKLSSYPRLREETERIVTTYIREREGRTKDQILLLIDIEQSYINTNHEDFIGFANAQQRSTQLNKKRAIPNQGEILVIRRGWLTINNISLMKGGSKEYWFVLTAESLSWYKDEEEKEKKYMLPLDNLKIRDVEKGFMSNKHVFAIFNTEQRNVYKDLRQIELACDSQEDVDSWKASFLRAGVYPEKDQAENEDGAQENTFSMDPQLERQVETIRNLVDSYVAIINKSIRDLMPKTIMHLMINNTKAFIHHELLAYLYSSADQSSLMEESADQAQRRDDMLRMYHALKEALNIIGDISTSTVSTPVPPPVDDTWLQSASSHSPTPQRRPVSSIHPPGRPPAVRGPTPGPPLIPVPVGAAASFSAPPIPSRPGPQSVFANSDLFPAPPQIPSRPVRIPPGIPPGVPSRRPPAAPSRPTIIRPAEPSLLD
UniProt P52594: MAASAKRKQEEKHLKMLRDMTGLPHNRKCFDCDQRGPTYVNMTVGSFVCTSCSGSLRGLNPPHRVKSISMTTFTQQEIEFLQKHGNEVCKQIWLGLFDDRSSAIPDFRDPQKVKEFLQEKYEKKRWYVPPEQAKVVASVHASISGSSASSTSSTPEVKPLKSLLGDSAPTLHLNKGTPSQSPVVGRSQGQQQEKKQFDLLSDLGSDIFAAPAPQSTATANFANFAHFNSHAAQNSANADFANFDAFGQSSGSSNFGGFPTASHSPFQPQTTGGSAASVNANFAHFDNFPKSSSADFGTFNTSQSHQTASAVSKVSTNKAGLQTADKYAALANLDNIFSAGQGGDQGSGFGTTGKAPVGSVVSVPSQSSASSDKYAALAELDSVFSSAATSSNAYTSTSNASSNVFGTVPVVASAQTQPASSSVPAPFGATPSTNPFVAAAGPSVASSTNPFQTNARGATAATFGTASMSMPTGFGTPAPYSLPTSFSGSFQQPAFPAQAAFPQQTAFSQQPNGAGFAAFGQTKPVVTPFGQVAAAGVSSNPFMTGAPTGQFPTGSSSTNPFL
UniProt P51948: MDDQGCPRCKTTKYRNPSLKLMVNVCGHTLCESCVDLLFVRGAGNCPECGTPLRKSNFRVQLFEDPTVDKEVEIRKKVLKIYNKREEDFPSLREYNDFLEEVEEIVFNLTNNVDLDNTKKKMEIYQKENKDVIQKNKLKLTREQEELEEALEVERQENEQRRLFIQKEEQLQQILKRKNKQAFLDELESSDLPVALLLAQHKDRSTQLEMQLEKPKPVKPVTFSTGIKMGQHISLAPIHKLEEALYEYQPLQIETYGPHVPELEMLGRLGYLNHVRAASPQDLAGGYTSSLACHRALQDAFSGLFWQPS
UniProt P49796: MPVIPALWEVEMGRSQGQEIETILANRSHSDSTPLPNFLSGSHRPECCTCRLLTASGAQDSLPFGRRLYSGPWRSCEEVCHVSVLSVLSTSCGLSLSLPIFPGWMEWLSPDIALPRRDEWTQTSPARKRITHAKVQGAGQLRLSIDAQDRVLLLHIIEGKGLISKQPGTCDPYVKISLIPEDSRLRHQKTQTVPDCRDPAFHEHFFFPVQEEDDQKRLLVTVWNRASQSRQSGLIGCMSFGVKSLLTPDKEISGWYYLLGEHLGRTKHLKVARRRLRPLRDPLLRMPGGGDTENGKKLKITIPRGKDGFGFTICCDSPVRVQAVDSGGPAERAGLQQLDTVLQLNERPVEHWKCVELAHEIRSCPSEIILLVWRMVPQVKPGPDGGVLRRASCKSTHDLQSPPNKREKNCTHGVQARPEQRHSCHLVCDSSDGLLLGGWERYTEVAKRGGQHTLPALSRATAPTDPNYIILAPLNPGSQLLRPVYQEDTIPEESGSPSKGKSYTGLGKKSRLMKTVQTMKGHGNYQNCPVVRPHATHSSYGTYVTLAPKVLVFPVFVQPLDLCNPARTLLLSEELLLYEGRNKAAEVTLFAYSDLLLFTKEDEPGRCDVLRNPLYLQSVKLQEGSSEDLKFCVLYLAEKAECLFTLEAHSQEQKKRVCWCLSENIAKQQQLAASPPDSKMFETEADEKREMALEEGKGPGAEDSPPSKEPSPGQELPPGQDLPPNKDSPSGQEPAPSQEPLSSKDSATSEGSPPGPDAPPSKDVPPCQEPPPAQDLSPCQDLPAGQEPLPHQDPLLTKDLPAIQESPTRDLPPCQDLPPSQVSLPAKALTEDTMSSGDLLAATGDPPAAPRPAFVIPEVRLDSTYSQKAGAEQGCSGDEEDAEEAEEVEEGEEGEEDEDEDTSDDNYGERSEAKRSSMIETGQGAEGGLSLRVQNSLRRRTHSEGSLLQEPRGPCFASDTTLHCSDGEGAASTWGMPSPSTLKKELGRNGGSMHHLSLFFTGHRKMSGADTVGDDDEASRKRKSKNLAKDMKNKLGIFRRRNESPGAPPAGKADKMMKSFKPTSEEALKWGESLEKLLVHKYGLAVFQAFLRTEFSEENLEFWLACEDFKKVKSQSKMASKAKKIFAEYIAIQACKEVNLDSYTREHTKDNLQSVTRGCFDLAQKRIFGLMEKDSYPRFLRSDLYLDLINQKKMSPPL
UniProt P52306: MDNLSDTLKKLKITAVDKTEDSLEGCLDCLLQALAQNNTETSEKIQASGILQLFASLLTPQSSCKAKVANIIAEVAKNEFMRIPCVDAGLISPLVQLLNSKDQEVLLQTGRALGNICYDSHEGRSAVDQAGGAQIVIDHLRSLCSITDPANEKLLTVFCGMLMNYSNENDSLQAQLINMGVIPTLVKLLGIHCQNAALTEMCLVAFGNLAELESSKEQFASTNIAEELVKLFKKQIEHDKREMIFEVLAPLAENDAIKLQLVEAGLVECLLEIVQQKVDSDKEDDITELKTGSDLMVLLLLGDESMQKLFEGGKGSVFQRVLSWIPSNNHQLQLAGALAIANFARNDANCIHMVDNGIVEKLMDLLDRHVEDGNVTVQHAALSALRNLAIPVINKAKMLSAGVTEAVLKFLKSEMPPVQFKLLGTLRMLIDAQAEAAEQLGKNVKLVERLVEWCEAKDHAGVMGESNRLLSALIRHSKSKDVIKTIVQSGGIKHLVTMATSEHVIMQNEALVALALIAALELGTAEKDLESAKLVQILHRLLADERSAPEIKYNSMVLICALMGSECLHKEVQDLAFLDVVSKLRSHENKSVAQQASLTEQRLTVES
UniProt P53597: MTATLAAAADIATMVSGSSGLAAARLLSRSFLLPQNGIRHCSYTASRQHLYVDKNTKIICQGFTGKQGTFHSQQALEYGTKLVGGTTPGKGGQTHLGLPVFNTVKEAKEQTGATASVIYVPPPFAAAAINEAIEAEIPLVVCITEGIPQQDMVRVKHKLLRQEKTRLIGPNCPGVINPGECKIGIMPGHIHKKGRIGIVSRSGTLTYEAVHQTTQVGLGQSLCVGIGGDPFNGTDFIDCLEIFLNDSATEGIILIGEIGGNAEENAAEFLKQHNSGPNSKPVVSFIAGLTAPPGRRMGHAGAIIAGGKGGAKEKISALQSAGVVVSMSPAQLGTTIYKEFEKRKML
UniProt P47756, whole entry: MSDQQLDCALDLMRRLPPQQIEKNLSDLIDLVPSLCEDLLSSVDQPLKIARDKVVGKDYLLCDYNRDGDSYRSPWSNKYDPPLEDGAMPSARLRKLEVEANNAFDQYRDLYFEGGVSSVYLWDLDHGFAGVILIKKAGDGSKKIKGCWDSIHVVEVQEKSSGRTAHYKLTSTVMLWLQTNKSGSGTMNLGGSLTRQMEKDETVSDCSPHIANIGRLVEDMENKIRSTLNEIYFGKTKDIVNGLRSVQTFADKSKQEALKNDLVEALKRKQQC
UniProt P54274: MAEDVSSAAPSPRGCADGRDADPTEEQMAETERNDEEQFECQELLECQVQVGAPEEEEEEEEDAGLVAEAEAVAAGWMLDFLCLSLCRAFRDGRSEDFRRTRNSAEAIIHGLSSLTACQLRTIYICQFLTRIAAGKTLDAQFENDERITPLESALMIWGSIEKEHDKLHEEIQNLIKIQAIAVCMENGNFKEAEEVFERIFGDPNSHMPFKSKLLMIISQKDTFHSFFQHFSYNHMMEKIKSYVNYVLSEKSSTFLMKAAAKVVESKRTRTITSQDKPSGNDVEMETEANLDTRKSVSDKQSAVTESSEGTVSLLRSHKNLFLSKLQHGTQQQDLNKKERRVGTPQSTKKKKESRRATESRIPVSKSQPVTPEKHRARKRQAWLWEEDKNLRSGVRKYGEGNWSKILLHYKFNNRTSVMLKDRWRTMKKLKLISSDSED

The list shows a part of the results. Most entries show no effect beyond the scatter of the controls.

Compound in the test: CN[C@@H]1C[C@H]2O[C@@](C)([C@@H]1OC)n1c3ccccc3c3c4c(c5c6ccccc6n2c5c31)C(=O)NC4 [staurosporine]
Kind of test: log2 fold change of tryptic peptide abundance, ligand vs vehicle (limited proteolysis) (log2 ratio); higher = more trypsin-susceptible (destabilized). The note with it: ligand concentration: 20 uM; sample: K562 cleared lysate; digestion: 4 min, 22 C (HT-PELSA RT4min, Orbitrap Astral).
Turning to “RFX5 (peptide sequence: QDIEDTASDAKR, peptide start residue: 453) (UniProt P48382)”, the log2 fold change was -0.805. As for “UniProt P53990 (peptide sequence: RFEELKK, peptide start residue: 356)”, the log2 fold change is 0.147. The figure for “CD97 (peptide sequence: YSEFTSTTSGTGHNQTR, peptide start residue: 810) (UniProt P48960)” is -0.124; for “KIF11 (peptide sequence: NGVYISEENFR, peptide start residue: 396) (UniProt P52732)” it is -0.102. With “RABIF (peptide sequence: VLQPGTALFSR, peptide start residue: 30) (UniProt P47224)”, the log2 fold change was determined as 0.14. For the target “UniProt P49720 (peptide sequence: LYIGLAGLATDVQTVAQR, peptide start residue: 49)”, the log2 fold change was -0.318. The figure for “MTIF2 (peptide sequence: DAQVPIILAVNKCDKAEADPEK, peptide start residue: 278) (UniProt P46199)” is 0.474.

With “RAP1GAP (peptide sequence: SPHPDAGKLGDPACPEIK, peptide start residue: 631) (UniProt P47736)”, the log2 fold change stood at 0.707. Turning to “UniProt P49459 (peptide sequence: RVSAIVEQSWR, peptide start residue: 140)”, the log2 fold change is -0.139. “HNRNPM (peptide sequence: MGAGMGFGLER, peptide start residue: 486) (UniProt P52272)”: the log2 fold change is -0.138. The figure for “PCYT1A (peptide sequence: TEGISTSDIITR, peptide start residue: 197) (UniProt P49585)” is -0.0825.

With “DNM2 (peptide sequence: RPVSSIHPPGRPPAVR, peptide start residue: 770) (UniProt P50570)”, the log2 fold change came out at 0.15. In the case of “UniProt P51955 (peptide sequence: SDGGHTVLHR, peptide start residue: 131)”, the log2 fold change is 1.05. The figure for “AGFG1 (peptide sequence: EFLQEKYEK, peptide start residue: 133) (UniProt P52594)” is -0.316; for “FNTB (peptide sequence: FNHLVPR, peptide start residue: 64) (UniProt P49356)” it is -0.183. The figure for “UniProt P46781 (peptide sequence: KQVVNIPSFIVR, peptide start residue: 139)” is 0.243; for “NDUFV1 (peptide sequence: AAYIYIR, peptide start residue: 153) (UniProt P49821)” it is -0.282. The figure for “CLTCL1 (peptide sequence: AHMGMFTELAILYSK, peptide start residue: 1312) (UniProt P53675)” is 0.208. With “MNAT1 (peptide sequence: GAGNCPECGTPLRK, peptide start residue: 42) (UniProt P51948)”, the log2 fold change stood at 0.274.

Turning to “PTDSS1 (peptide sequence: SKVTNGVGKK, peptide start residue: 464) (UniProt P48651)”, the log2 fold change was -0.715. As for “RAD23B (peptide sequence: PAEKPAETPVATSPTATDSTSGDSSR, peptide start residue: 148) (UniProt P54727)”, the log2 fold change is -0.163.

On to “RGS3 (peptide sequence: EHTKDNLQSVTR, peptide start residue: 1146) (UniProt P49796)”, for which the log2 fold change came out at 0.54.

For the target “RAP1GDS1 (peptide sequence: LMDLLDR, peptide start residue: 362) (UniProt P52306)”, the log2 fold change turned out to be 0.342.

With “SUCLG1 (peptide sequence: QHLYVDKNTK, peptide start residue: 48) (UniProt P53597)”, the log2 fold change is 0.596. The figure for “TUFM (peptide sequence: ARGITINAAHVEYSTAAR, peptide start residue: 106) (UniProt P49411)” is 0.65.

In the case of “MRPL12 (peptide sequence: ANVAKAEAEKIK, peptide start residue: 174) (UniProt P52815)”, the log2 fold change worked out at 1.22. The figure for “CAPZB (peptide sequence: NDLVEALKR, peptide start residue: 260) (UniProt P47756)” is 0.1; for “TERF1 (peptide sequence: QAWLWEEDKNLR, peptide start residue: 381) (UniProt P54274)” it is -0.123.
